The other results are listed elsewhere or left out.
These molecules were tested against ZNF618 (UniProt B1ALC2) (assay: log2 fold change, soluble protein after heating vs DMSO (PISA); higher = thermal stabilisation; K562 cells, 10 uM, 30 min; active = over 0.2 and 3.5 SD of the protein, either way, in both replicates (recomputed)).
In short: (§1)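 For each measurement, 10 μM compound was applied for 30 min to K562 cells at 2×10^6 cells/mL. Aliquots were heated for 3 min across 48°C-58°C, pooled, and extracted in PBS with 0.5% NP-40 at 4°C; the supernatant after 21,000xg for 90 min was soluble protein. This was quantified by TMTpro 16plex LC-MS/MS with channel sums equalised, and thermal stability was reported relative to control samples from duplicates, on a log2 fold-change scale.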

Protein sequences, listed by entry. Tags and fused reporters are not part of them. Lines headed by an entry give the natural chain unless they say otherwise; changes in a name come on top.
UniProt Q5T7W0: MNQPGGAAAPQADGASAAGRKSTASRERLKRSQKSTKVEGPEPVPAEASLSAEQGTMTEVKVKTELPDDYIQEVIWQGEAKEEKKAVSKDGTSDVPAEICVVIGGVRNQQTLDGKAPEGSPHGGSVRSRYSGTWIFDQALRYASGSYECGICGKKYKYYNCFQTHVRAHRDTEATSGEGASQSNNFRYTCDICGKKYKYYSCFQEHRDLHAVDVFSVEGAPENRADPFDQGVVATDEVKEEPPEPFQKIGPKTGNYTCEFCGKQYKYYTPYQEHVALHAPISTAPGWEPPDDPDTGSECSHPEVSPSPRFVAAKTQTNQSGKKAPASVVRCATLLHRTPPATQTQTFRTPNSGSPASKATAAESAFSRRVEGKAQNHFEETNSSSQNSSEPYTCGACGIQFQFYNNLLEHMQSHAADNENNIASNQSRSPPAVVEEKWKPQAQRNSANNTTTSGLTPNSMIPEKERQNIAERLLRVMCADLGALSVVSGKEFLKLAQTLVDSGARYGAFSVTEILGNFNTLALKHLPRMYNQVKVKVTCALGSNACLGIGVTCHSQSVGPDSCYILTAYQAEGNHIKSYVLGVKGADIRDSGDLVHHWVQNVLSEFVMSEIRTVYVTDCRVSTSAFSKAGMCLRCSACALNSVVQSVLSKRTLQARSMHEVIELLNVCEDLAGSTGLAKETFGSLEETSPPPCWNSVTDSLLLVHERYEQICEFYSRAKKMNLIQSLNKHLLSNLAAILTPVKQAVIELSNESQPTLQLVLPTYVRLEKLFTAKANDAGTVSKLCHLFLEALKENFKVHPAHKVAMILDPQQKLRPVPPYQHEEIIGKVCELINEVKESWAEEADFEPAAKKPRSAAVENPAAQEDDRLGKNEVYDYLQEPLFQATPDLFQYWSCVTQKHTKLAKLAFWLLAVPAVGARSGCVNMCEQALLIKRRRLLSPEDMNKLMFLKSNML

log2 fold change, inactive:
CC(C)N(C[C@H]1O[C@@H](n2cnc3c(N)ncnc32)[C@H](O)[C@@H]1O)[C@H]1C[C@@H](CCc2nc3cc(C(C)(C)C)ccc3[nH]2)C1 [pinometostat] -0.028
CN1CCC(CNc2ccc3ncc(-c4cccc(OC(F)(F)F)c4)n3n2)CC1 0.044
C[C@@H](N)c1ccc(C(=O)Nc2ccnc3[nH]ccc23)cc1 -0.319
CC[C@H](C)n1cc(C)c2c(C(=O)NCc3c(C)cc(C)[nH]c3=O)cc(-c3ccc(N4CCNCC4)nc3)cc21 0.02
COc1ccc(Cn2ccc3ccc(C(=O)NO)cc32)cc1 0.002
CS(=O)(=O)N1CCN(Cc2cc3nc(-c4cccc5[nH]ncc45)nc(N4CCOCC4)c3s2)CC1 [pictilisib] -0.048
COc1cc(Nc2ncc3c(n2)-c2ccc(Cl)cc2C(c2c(F)cccc2OC)=NC3)ccc1C(=O)O [alisertib] 0.127
Cn1cc(-c2ccc3c(c2)CCN3C(=O)Cc2cccc(C(F)(F)F)c2)c2c(N)ncnc21 -0.012
O=C(CCCCCCC(=O)Nc1ccccc1)NO [vorinostat] 0.025
C[C@@H](Oc1cc(-c2cnn(C3CCNCC3)c2)cnc1N)c1c(Cl)ccc(F)c1Cl [crizotinib] 0.042
Cc1ccc(-n2nc(C(C)(C)C)cc2NC(=O)Nc2ccc(OCCN3CCOCC3)c3ccccc23)cc1 [doramapimod] 0.076
Cc1cn(-c2cc(NC(=O)c3ccc(C)c(Nc4nccc(-c5cccnc5)n4)c3)cc(C(F)(F)F)c2)cn1 [nilotinib] -0.004
O=C(O)c1ccc2c(c1)nc(Nc1cccc(Cl)c1)c1ccncc12 [silmitasertib] 0.153
C=CC(=O)N1CCC[C@@H](n2nc(-c3ccc(Oc4ccccc4)cc3)c3c(N)ncnc32)C1 [ibrutinib] -0.033
O=C(Nc1nc2ccccc2n1CCN1CCOCC1)c1cccc([N+](=O)[O-])c1 [IRAK-1-4 Inhibitor I] -0.029
Cc1nc(Nc2n[nH]c3c2CN(C(=O)N[C@H](CN(C)C)c2ccccc2)C3(C)C)c2sccc2n1 0.059
CO[C@H]1C[C@@H]2CC[C@@H](C)[C@@](O)(O2)C(=O)C(=O)N2CCCC[C@H]2C(=O)O[C@H]([C@H](C)C[C@@H]2CC[C@H](n3cnnn3)[C@H](OC)C2)CC(=O)[C@H](C)/C=C(\C)[C@@H](O)[C@@H](OC)C(=O)[C@H](C)C[C@H](C)/C=C/C=C/C=C/1C [zotarolimus] -0.155
FC(F)(F)c1ccc(/C=C/c2nc(COc3ccc(CCCCn4ccnn4)cc3)co2)cc1 [mubritinib] 0.313

These molecules were tested against ZNF618 (UniProt Q5T7W0) in the same assay as above.
In short: as §1

log2 fold change, inactive:
CCCc1cc(C)[nH]c(=O)c1CNC(=O)c1cc(-c2ccnc(N3CCN(C)CC3)c2)cc2c1cnn2C(C)C -0.024
Cc1cccc(-c2[nH]c(C(C)(C)C)nc2-c2ccc3nccnc3c2)n1 0
COc1cc2ncnc(Nc3ccc(F)c(Cl)c3)c2cc1OCCCN1CCOCC1 [gefitinib] -0.016
Cc1cc(Nc2cc(CN3CCOCC3)c3nc(C)c(Cc4ccc(Cl)cc4F)n3n2)n[nH]1 [gandotinib] -0.005
NC1(c2ccc(-c3nc4ccn5c(=O)[nH]nc5c4cc3-c3ccccc3)cc2)CCC1 -0.039
O=C1NC(=O)/C(=C\c2ccc3nccnc3c2)S1 0
CCN(CCCOc1ccc2c(Nc3cc(CC(=O)Nc4cccc(F)c4)[nH]n3)ncnc2c1)CCOP(=O)(O)O [barasertib] 0.046
Cc1ncc(-c2ccnc(Nc3ccc(S(C)(=O)=O)cc3)n2)n1C(C)C -0.035
Cc1cccc(CC(=O)N2CCc3c2ccc(-c2cn(C)c4ncnc(N)c24)c3F)n1 -0.034
COc1cccc2cc(-c3nc([C@H]4CC[C@H](C(=O)O)CC4)n4ncnc(N)c34)[nH]c12 0.034
Cc1ccc(NC(=O)c2ccc(CN3CC[C@H](N(C)C)C3)c(C(F)(F)F)c2)cc1Nc1nccc(-c2cncnc2)n1 [bafetinib] -0.093
CCn1cc(-c2ccnc3[nH]c(-c4cccc(CN(C)C)c4)cc23)c(-c2ccc(NC(=O)N(C)C)cc2)n1 0.068
CC(C)N(C[C@H]1O[C@@H](n2cnc3c(N)ncnc32)[C@H](O)[C@@H]1O)[C@H]1C[C@@H](CCc2nc3cc(C(C)(C)C)ccc3[nH]2)C1 [pinometostat] -0.019
CN1CCC(CNc2ccc3ncc(-c4cccc(OC(F)(F)F)c4)n3n2)CC1 -0.105
C[C@@H](N)c1ccc(C(=O)Nc2ccnc3[nH]ccc23)cc1 -0.001
CC[C@H](C)n1cc(C)c2c(C(=O)NCc3c(C)cc(C)[nH]c3=O)cc(-c3ccc(N4CCNCC4)nc3)cc21 -0.033
COc1ccc(Cn2ccc3ccc(C(=O)NO)cc32)cc1 -0.002
CS(=O)(=O)N1CCN(Cc2cc3nc(-c4cccc5[nH]ncc45)nc(N4CCOCC4)c3s2)CC1 [pictilisib] 0.069
COc1cc(Nc2ncc3c(n2)-c2ccc(Cl)cc2C(c2c(F)cccc2OC)=NC3)ccc1C(=O)O [alisertib] 0.246
Cn1cc(-c2ccc3c(c2)CCN3C(=O)Cc2cccc(C(F)(F)F)c2)c2c(N)ncnc21 -0.036
O=C(CCCCCCC(=O)Nc1ccccc1)NO [vorinostat] -0.017
C[C@@H](Oc1cc(-c2cnn(C3CCNCC3)c2)cnc1N)c1c(Cl)ccc(F)c1Cl [crizotinib] -0.02
Cc1ccc(-n2nc(C(C)(C)C)cc2NC(=O)Nc2ccc(OCCN3CCOCC3)c3ccccc23)cc1 [doramapimod] -0.043
Cc1cn(-c2cc(NC(=O)c3ccc(C)c(Nc4nccc(-c5cccnc5)n4)c3)cc(C(F)(F)F)c2)cn1 [nilotinib] 0.007
O=C(O)c1ccc2c(c1)nc(Nc1cccc(Cl)c1)c1ccncc12 [silmitasertib] -0.004
C=CC(=O)N1CCC[C@@H](n2nc(-c3ccc(Oc4ccccc4)cc3)c3c(N)ncnc32)C1 [ibrutinib] 0.004
O=C(Nc1nc2ccccc2n1CCN1CCOCC1)c1cccc([N+](=O)[O-])c1 [IRAK-1-4 Inhibitor I] 0.023
Cc1nc(Nc2n[nH]c3c2CN(C(=O)N[C@H](CN(C)C)c2ccccc2)C3(C)C)c2sccc2n1 -0.041
CO[C@H]1C[C@@H]2CC[C@@H](C)[C@@](O)(O2)C(=O)C(=O)N2CCCC[C@H]2C(=O)O[C@H]([C@H](C)C[C@@H]2CC[C@H](n3cnnn3)[C@H](OC)C2)CC(=O)[C@H](C)/C=C(\C)[C@@H](O)[C@@H](OC)C(=O)[C@H](C)C[C@H](C)/C=C/C=C/C=C/1C [zotarolimus] -0.034
FC(F)(F)c1ccc(/C=C/c2nc(COc3ccc(CCCCn4ccnn4)cc3)co2)cc1 [mubritinib] -0.005
